Experimental data published in patent US20150313225A1.
At least one read-out could not be matched to a standard name with certainty.

Tested on: Septoria tritici
Test: Microtest against leaf blotch on wheat caused by Septoria tritici (Septtr)
Assay type: cell-based
Settings: solo product

CC(O)(Cn1cncn1)c1ccc(Oc2ccc(Cl)cc2)cc1Cl (centres unmarked) [I-17, 2-[2-chloro-4-(4-chlorophenoxy)phenyl]-1-(1,2,4-triazol-1-yl)propan-2-ol] was tested, and the Observed efficacy (0.000004 ppm) was 14 and the Observed efficacy (0.000016 ppm) was 12.
